Measured values published in US20110311475A1 (published 2011).

Target: T1, Recombinant Human IL-4 Rα Fc Chimera protein (R&D Systems) (human, UniProt P24394 26-231)
T1 construct: In the assay it was coupled to DyLight 649 conjugated Protein A; also called IL-4Rα subunit; Fc part of the bought chimera not given
T1 sequence (looked up): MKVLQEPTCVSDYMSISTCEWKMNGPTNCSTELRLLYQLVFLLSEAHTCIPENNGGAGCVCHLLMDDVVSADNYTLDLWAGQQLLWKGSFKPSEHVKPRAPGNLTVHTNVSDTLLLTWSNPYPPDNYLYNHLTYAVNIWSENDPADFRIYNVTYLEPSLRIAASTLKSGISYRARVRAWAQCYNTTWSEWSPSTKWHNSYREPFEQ
Assay: bead-based flow cytometric immunoassay, receptor-Fc chimera/Protein A-DyLight 649 (FIG. 19D)
Description: Both goat anti-human IL-21 and rabbit anti-human IL-21 antibodies were initially tested using a Western blot technique to confirm suitable detection of the IL-21 variant proteins with the predicted size. The success of antibody-to-bead conjugation was verified using PE Goat anti-Rabbit IgG Detector (BD Biosciences). To detect the receptor interaction of bead-captured IL-21 variants with the Interleukin-21 receptor proprietary subunit, the Interleukin-4 receptor alpha subunit, the Interleukin-2 receptor alpha or the Interleukin-2 receptor beta, appropriate receptor-Fc-chimera proteins were coupled with a Protein-A-fluorochrome complex suitable for flow cytometric evaluation. […] 50 μl of antibody-coated beads and serial dilutions of IL-21 variant proteins, with final concentrations ranging from 100 pg/ml to 1 μg/ml, were incubated together with the fluorescence conjugated receptor-chimera-Protein-A complexes in excess in 96-well plates for 3 h on a titer plate shaker. […] Bead particles were discriminated on the basis of size and fluorescence (see FIGS. 19A and B) on a BD FACSCanto II system with BD FACSDiva software (BD Biosciences). […]

B1: "Chim-hIL-21/4" (ligand)
chain: QGQDRHMIRMRQLIDIVDQLKNYVNDLVPEFLPAPEDVETNCEWSAFSCFQKAQLKSANTGNNERIINVSIKKLKRNLWGLAGLNSCPSCDSYEKKPPKEFLERFKSLLQKMIHQHLSSRTHGSEDS
notes: The tag was cleaved off before the assay; also called Chim-hIL-21/4 protein; chimeric IL21-IL4 protein of Bondensgaard et al. (2007)
B1: binds.
